Measurements reported in patent US20230029835A1 (KEYMED BIOSCIENCES, published 2023).
These are yes or no findings as the source states them, for the method shown. Some results given as binding are weak or reduced against the parent protein; the word gives no strength.

Sequences of proteins named here, by UniProt entry; tags and fusion partners are left off. A change or cut given only in a name is not applied to a line headed by its entry.
UniProt Q969D9: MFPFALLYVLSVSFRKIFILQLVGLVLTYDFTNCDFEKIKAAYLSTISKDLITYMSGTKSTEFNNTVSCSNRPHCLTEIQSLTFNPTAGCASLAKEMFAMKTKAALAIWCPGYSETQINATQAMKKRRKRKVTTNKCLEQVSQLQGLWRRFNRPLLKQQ

How the values were obtained:
[1] = target: Cynomolgus macaques TSLP recombinant protein (Cynomolgus macaques); assay: competition ELISA: antibody pre-incubated with 60 ng/mL biotinylated Cynomolgus macaques TSLP, added to coated Cynomolgus macaques TSLPR-Fc, SA-HRP, A450; blocked partner Cynomolgus macaques TSLPR
[2] = target: Cynomolgus macaques TSLP recombinant protein (Cynomolgus macaques); assay: ELISA on coated cynomolgus TSLP
[3] = target: T1, human TSLP recombinant protein (human, UniProt Q969D9 29-159, biotinylated in the blocking and cell-binding assays (sites not given)); assay: ELISA on coated human TSLP
[4] = target: T1, human TSLP recombinant protein; assay: ELISA, human TSLP coated at 1 ug/mL, anti-human IgG Fc-HRP, A450
[5] = target: T1, human TSLP recombinant protein; assay: competition ELISA: antibody pre-incubated with 60 ng/mL biotinylated human TSLP, added to coated human TSLPR-Fc, SA-HRP, A450; blocked partner human TSLPR
[6] = target: T1, human TSLP recombinant protein; assay: SPR BIAcore T200
[7] = target: Cynomolgus macaques TSLP recombinant protein (Cynomolgus macaques); assay: SPR BIAcore T200
[8] = target: Cynomolgus macaques TSLP recombinant protein (Cynomolgus macaques); assay: ELISA, Cynomolgus macaques TSLP coated at 1 ug/mL, anti-human IgG Fc-HRP, A450
[9] = target: T1, human TSLP recombinant protein; assay: flow cytometry blocking: antibody pre-incubated with biotinylated human TSLP, added to Ba/F3-hTSLPR-IL7Rα cells, SA-PE; blocked partner cell-surface human TSLPR

Measured: binding

B1: Ab10 (antibody, V domains shown)
VH: QVQLVQSGAEVKKPGSSVKVSCKASGYTFTDYWMHWVRQAPGQGLEWMGIIDPSDSDTSLNQKFQGRVTITADTSTSTAYMELSSLRSEDTAVYYCARSLDGYYDYWGQGTLVTVSS
VL: DIQMTQSPSSLSASVGDRVTITCRASENIYSYLAWYQQKPGKAPKLLIYNARTLPEGVPSRFSGSGSGTDFTLTISSLQPEDFATYYCQHHYTTPWTFGQGTKVEIK
notes: Humanized; also called h39G5VHv10/h39G5VKv1
binds: [1] | [2] | [3] | [4] | [5]

B2: Ab26 (antibody, V domains shown)
VH: QVQLVQSGAEVKKPGSSVKVSCKASGYTFTDYWMHWVRQAPGQGLEWMGIIDPSDSDTSLNQKFQGRVTITADTSTSTAYMELSSLRSEDTAVYYCARSLDGYYDYWGQGTLVTVSS
VL: DIQMTQSPSSLSASVGDRVTITCRTSENIYSYLAWYQQKPGKAPKLLIYFAKTLTDGVPSRFSGSGSGTDFTLTISSLQPEDFATYYCQHHYGTPWTFGQGTKVEIK
notes: Humanized; also called h39G5VHv10/h71G4VKv1; h39G5VHv10/h71G4VKv1 hIgG1
binds: [1] | [6] | [7] | [2] | [3] | [8] | [9] | [4] | [5]
